Results published in PMC10858942.
Results are given in words; binding and its absence hold for the method and conditions named. Binding seen in cells or lysates may run through a third protein. A yes stands for co-enrichment or nearness to the bait. Other partners may have been found.

By UniProt entry, the sequences of proteins in these tests, tags left out. Residues count along the entry.
UniProt P05091, residues 18-517: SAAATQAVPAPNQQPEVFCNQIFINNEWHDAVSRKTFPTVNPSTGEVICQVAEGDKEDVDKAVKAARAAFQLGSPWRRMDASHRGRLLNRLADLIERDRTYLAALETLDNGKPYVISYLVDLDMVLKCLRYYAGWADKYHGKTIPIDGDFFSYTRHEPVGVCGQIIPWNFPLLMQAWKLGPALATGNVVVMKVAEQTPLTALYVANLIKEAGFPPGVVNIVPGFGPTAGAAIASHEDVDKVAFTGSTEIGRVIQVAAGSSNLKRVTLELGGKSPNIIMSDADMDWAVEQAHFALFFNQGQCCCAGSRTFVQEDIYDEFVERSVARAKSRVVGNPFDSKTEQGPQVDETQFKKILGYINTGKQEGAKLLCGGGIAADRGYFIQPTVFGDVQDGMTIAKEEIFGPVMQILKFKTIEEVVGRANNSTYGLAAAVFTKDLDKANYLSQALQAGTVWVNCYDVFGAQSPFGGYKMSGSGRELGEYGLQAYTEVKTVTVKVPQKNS
UniProt P20700: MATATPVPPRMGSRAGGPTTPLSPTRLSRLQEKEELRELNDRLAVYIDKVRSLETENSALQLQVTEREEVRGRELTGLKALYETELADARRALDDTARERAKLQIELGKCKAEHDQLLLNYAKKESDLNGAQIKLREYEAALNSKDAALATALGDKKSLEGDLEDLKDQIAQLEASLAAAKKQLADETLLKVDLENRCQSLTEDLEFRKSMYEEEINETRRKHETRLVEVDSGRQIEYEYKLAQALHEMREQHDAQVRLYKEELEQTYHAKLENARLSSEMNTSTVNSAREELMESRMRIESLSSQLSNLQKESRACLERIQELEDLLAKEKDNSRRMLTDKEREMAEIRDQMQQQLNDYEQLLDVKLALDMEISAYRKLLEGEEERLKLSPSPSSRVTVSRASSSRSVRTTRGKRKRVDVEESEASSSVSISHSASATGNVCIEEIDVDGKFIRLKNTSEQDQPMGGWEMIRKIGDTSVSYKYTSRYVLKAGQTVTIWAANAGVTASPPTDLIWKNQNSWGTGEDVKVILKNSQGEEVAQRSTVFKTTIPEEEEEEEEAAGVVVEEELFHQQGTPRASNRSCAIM
UniProt P08238: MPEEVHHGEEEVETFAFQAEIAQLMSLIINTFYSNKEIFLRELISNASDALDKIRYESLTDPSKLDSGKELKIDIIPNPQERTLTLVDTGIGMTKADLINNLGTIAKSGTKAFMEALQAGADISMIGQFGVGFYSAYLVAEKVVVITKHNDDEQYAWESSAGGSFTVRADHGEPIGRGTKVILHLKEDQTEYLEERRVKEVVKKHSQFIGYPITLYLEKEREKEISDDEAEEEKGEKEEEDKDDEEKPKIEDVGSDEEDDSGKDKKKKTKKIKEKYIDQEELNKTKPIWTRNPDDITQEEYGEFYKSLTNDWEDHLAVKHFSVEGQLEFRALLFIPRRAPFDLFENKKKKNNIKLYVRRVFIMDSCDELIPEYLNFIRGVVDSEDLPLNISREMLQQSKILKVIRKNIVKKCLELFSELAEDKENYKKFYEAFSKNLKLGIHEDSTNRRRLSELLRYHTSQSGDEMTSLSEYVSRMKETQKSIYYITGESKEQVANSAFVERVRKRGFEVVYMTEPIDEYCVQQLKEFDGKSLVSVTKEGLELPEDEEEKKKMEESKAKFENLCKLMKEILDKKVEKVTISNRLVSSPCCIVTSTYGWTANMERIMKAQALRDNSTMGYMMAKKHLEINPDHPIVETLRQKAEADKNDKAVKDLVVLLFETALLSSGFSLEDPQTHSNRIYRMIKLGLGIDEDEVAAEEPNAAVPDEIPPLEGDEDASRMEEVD
UniProt O43791: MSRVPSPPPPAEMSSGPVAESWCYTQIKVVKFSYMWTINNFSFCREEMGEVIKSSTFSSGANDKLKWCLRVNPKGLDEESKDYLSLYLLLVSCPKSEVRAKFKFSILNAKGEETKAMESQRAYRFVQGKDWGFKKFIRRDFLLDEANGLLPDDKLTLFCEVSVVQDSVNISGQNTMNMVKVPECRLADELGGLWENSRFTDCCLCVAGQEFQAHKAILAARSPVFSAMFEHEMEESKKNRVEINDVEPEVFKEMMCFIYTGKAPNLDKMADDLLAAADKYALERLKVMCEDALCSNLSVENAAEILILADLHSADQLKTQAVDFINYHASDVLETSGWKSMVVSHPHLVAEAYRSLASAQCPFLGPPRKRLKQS

Biological target: Flag-BCLAF1 (UniProt Q9NYF8)
Test: affinity purification with mass spectrometry; Flag-BCLAF1 exogenously expressed in and immunoprecipitated from HEK-293T cells; LC-MS/MS of the immunoprecipitate

| Substance | binding |
| --- | --- |
| ALDH2 (from UniProt P05091 18-517) | binds |
| HSP90AA1 (from UniProt P07900 1-732) | binds |
| LMNB1 (from UniProt P20700 1-586) | binds |

More lines, now with the values ahead:

| binding | Substance |
| --- | --- |
| binds | HSP90AB1 (from UniProt P08238 1-724) |
| binds | endogenous SPOP (HEK-293T cells) (from UniProt O43791 1-374) |
